PMC11445549
Results are given in words; binding and its absence hold for the method and conditions named. For part of these data: In cells and extracts the contact can be indirect. Some binding calls cover weakened binding; strength is not graded here. Tags and fused reporters may be left off the sequences shown. Each block holds one binder with its values, some of them ahead of it.

The chains behind the UniProt entries cited, without tags or fusion partners.
UniProt P19474: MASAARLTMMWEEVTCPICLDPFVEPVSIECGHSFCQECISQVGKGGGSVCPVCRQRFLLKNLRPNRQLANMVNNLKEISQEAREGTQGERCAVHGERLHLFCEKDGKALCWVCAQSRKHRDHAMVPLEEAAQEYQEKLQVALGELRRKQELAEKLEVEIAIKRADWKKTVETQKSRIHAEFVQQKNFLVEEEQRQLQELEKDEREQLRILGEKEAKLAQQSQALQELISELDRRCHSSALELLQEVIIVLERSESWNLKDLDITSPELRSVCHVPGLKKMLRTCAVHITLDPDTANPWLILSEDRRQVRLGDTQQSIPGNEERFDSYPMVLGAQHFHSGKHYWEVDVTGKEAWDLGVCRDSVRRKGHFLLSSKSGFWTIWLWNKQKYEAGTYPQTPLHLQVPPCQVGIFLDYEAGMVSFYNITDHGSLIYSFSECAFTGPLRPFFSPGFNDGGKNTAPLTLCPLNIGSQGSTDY

Legend:
GST-TRIM21 [1] = target: GST-TRIM21 (UniProt P19474); assay: pull-down; competitive: purified His-EPDR1 and His-IKBKB incubated with purified GST-TRIM21 alone or together in vitro; Western blotting; both purified
GST-TRIM21 [2] = target: GST-TRIM21 (UniProt P19474); assay: pull-down; GST-tagged TRIM21 and a 6xHis-tagged protein purified from E. coli, incubated in vitro in pull-down buffer (137 mM NaCl, 0.1% Triton X-100); Western blotting; both purified
Flag-TRIM21 = Flag-TRIM21 (UniProt P19474); assay: co-IP; HEK293T cells transfected with a Flag-tagged and an HA-tagged protein; lysates (1% NP-40 IP buffer) immunoprecipitated with anti-Flag, blotted for HA
HA-TRIM21 = HA-TRIM21 (UniProt P19474); assay: co-IP; competitive binding: HepG2 cells expressing empty vector or EPDR1, infected with Flag-IKBKB and HA-EV or HA-TRIM21; immunoprecipitated with anti-HA, blotted for IKBKB, EPDR1 and HA

binding (GST-TRIM21 [1]): binds | binding (GST-TRIM21 [2]): binds
B1: His-IKBKB (protein, UniProt O14920 1-756)
chain: MSWSPSLTTQTCGAWEMKERLGTGGFGNVIRWHNQETGEQIAIKQCRQELSPRNRERWCLEIQIMRRLTHPNVVAARDVPEGMQNLAPNDLPLLAMEYCQGGDLRKYLNQFENCCGLREGAILTLLSDIASALRYLHENRIIHRDLKPENIVLQQGEQRLIHKIIDLGYAKELDQGSLCTSFVGTLQYLAPELLEQQKYTVTVDYWSFGTLAFECITGFRPFLPNWQPVQWHSKVRQKSEVDIVVSEDLNGTVKFSSSLPYPNNLNSVLAERLEKWLQLMLMWHPRQRGTDPTYGPNGCFKALDDILNLKLVHILNMVTGTIHTYPVTEDESLQSLKARIQQDTGIPEEDQELLQEAGLALIPDKPATQCISDGKLNEGHTLDMDLVFLFDNSKITYETQISPRPQPESVSCILQEPKRNLAFFQLRKVWGQVWHSIQTLKEDCNRLQQGQRAAMMNLLRNNSCLSKMKNSMASMSQQLKAKLDFFKTSIQIDLEKYSEQTEFGITSDKLLLAWREMEQAVELCGRENEVKLLVERMMALQTDIVDLQRSPMGRKQGGTLDDLEEQARELYRRLREKPRDQRTEGDSQEMVRLLLQAIQSFEKKVRVIYTQLSKTVVCKQKALELLPKVEEVVSLMNEDEKTVVRLQEKRQKELWNLLKIACSKVRGPVSGSPDSMNASRLSQPGQLMSQPSTASNSLPEPAKKSEELVAEAHNLCTLLENAIQDTVREQDQSFTALDWSWLQTEEEEHSCLEQAS

binding (Flag-TRIM21): binds
B2: HA-IKBKB (protein, UniProt O14920 1-756)
chain: B1 chain

binding (HA-TRIM21): binds
B3: Flag-IKBKB (protein, UniProt O14920 1-756)
chain: B1 chain

binding (GST-TRIM21 [2]): binds
B4: His-EPDR1 (protein, UniProt Q9UM22 38-224)
chain: APRPCQAPQQWEGRQVMYQQSSGRNSRALLSYDGLNQRVRVLDERKALIPCKRLFEYILLYKDGVMFQIDQATKQCSKMTLTQPWDPLDIPQNSTFEDQYSIGGPQEQITVQEWSDRKSARSYETWIGIYTVKDCYPVQETFTINYSVILSTRFFDIQLGIKDPSVFTPPSTCQMAQLEKMSEDCSW

binding (HA-TRIM21): binds
B5: EPDR1 overexpressed in HepG2 cells (competitive co-IP, Fig. 3L) (protein, UniProt Q9UM22 38-224)
chain: B4 chain
